Literature values, collected in patent US20020187219A1, “Low glycemic response compositions” (The Procter & Gamble Co., priority 2001, published 2002).

Conditions: individual sugars; glucose = reference food, 100 as defined

Row | SMILES | Glycemic Index
1 | OC[C@H]1O[C@H](O[C@H]2[C@H](O)[C@@H](O)C(O)O[C@@H]2CO)[C@H](O)[C@@H](O)[C@@H]1O (mixture of isomers) [maltose] | 105
2 | OC[C@H]1O[C@@](CO)(O[C@H]2O[C@H](CO)[C@@H](O)[C@H](O)[C@H]2O)[C@@H](O)[C@@H]1O [Sucrose] | 65
